PubChem BioAssay AID504774 – Drosophila RNAi Screening Center, 2011
Screen: 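Fly genes whose loss alters survival after alkylation damage to DNA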 (primary screen). Cell system: Drosophila Kc167 cells. Reagent: long dsRNA against Drosophila genes, about 0.25 µg dsRNA per well. Time to read-out: about 6 days: 3 days knock-down, then 3 days with or without MMS. Challenge: methyl methanesulphonate 0.004% (w/v) for 3 days after knock-down. Measurement: 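Viability in wells given MMS, read as ATP luminescence, normalised by quantiles plate by plate and averaged across replicates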. Direction: mean viability with MMS and viability with MMS: higher = more surviving cells after MMS.
In all, the deposit lists about 23,000 reagents; shown is an unselected part of those with a known target gene and a result. 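Values are quantile-normalised luminescence on an arbitrary scale; higher means more cells surviving MMS.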 Further read-outs or replicates are left out here.

CG40341 (retired record) [DRSC01767] → mean viability with MMS: 3.56e6; viability with MMS, replicate 1: 4.05e6
CG40341 (retired record) [DRSC03750] → mean viability with MMS: 3.49e6; viability with MMS, replicate 1: 3.98e6
Nipped-A [DRSC04882] → mean viability with MMS: 3.57e6; viability with MMS, replicate 1: 4.05e6
Nipped-A [DRSC04883] → mean viability with MMS: 3.15e6; viability with MMS, replicate 1: 3.49e6
Nipped-A [DRSC04884] → mean viability with MMS: 3.12e6; viability with MMS, replicate 1: 3.48e6
Nipped-A [DRSC07738] → mean viability with MMS: 3.28e6; viability with MMS, replicate 1: 3.74e6
Nipped-A [DRSC22386] → mean viability with MMS: 2.62e6; viability with MMS, replicate 1: 3.71e6
l(2)37Cd (lethal (2) 37Cd) [DRSC02069] → mean viability with MMS: 3.54e6; viability with MMS, replicate 1: 3.99e6
Pura (Puratrophin-1-like) [DRSC08891] → mean viability with MMS: 3.39e6; viability with MMS, replicate 1: 3.87e6
Pura (Puratrophin-1-like) [DRSC10862] → mean viability with MMS: 3.53e6; viability with MMS, replicate 1: 4.02e6
Pura (Puratrophin-1-like) [DRSC10864] → mean viability with MMS: 3.52e6; viability with MMS, replicate 1: 3.97e6
Pura (Puratrophin-1-like) [DRSC10865] → mean viability with MMS: 3.49e6; viability with MMS, replicate 1: 3.98e6
Pura (Puratrophin-1-like) [DRSC10866] → mean viability with MMS: 3.66e6; viability with MMS, replicate 1: 4.13e6

Part of the list above, reduced to “viability with MMS, replicate 1”:
Pura (Puratrophin-1-like) [DRSC10862]	4.02e6
Pura (Puratrophin-1-like) [DRSC10864]	3.97e6

Further records follow:
DAT (Dopamine transporter) [DRSC07394] → mean viability with MMS: 3.68e6; viability with MMS, replicate 1: 4.12e6
CG15370 [DRSC18042] → mean viability with MMS: 3.54e6; viability with MMS, replicate 1: 4.05e6
CG15370 [DRSC23277] → mean viability with MMS: 3.49e6; viability with MMS, replicate 1: 3.89e6
CG6013 [DRSC15947] → mean viability with MMS: 3.75e6; viability with MMS, replicate 1: 4.21e6
CG15537 [DRSC15073] → mean viability with MMS: 3.56e6; viability with MMS, replicate 1: 4.03e6
CG3505 [DRSC15489] → mean viability with MMS: 3.75e6; viability with MMS, replicate 1: 4.34e6
Dcr-1 (Dicer-1) [DRSC15646] → mean viability with MMS: 3.56e6; viability with MMS, replicate 1: 4.09e6
CG6650 [DRSC10685] → mean viability with MMS: 3.44e6; viability with MMS, replicate 1: 4.05e6
ETH (Ecdysis triggering hormone) [DRSC04612] → mean viability with MMS: 3.44e6; viability with MMS, replicate 1: 3.91e6
CG40006 [DRSC03787] → mean viability with MMS: 3.50e6; viability with MMS, replicate 1: 3.97e6
CG40006 [DRSC03809] → mean viability with MMS: 3.55e6; viability with MMS, replicate 1: 3.97e6
CG40006 [DRSC03814] → mean viability with MMS: 3.45e6; viability with MMS, replicate 1: 4.02e6
CG40006 [DRSC03817] → mean viability with MMS: 3.54e6; viability with MMS, replicate 1: 3.95e6
